Experimental data: PubChem BioAssay AID1259405 (NCATS, 2018)

- Purpose: 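Knock-downs that lift recombinant protein yield in hamster ovary cells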 (primary screen)
- Cell system: Chinese hamster CHO-K1 ovary cells with stable secreted eGFP expression
- Reagents: single siRNA against mouse genes, 0.8 pmol siRNA per well (2 µl of 400 nM stock)
- Timing: 3 days
- Detection: 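Percent of the per-plate non-targeting control median for intracellular GFP per well by laser scanning cytometry and for cell viability by ATP luminescence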
- Direction: GFP, % of control: higher = more GFP per well, higher productivity; viability (ATP), % of control: higher = more viable cells (more ATP)
- Active means: 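Called active when intracellular GFP, relative to negative control, is at or above 120%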
The whole screen tested about 50,000 reagents; shown is a random part of them. About 4,000 of all reagents (8%) count as active. 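Mouse siRNA library applied to hamster cells; one well for each siRNA.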

Gene	PubChem SID	GFP, % of control	viability (ATP), % of control	Outcome
Ralbp1 (ralA binding protein 1)	SID363581942	67.4	99.8	inactive
Ralbp1 (ralA binding protein 1)	SID363589436	75.2	91.2	inactive
Jak1 (Janus kinase 1)	SID363570864	39	19.7	inactive
Arap3 (ArfGAP with RhoGAP domain, ankyrin repeat and PH domain 3)	SID363570294	126	148	active
Arap3 (ArfGAP with RhoGAP domain, ankyrin repeat and PH domain 3)	SID363576630	145	103	active
Arap3 (ArfGAP with RhoGAP domain, ankyrin repeat and PH domain 3)	SID363579798	55.4	69.8	inactive
Rhbdd1 (rhomboid domain containing 1)	SID363547464	63.5	30.6	inactive
Rhbdd1 (rhomboid domain containing 1)	SID363558233	63.2	89.3	inactive
Rhbdd1 (rhomboid domain containing 1)	SID363559991	75.2	96.3	inactive
Sugp2 (SURP and G patch domain containing 2)	SID363546121	50.8	72.8	inactive
Sugp2 (SURP and G patch domain containing 2)	SID363549634	87.3	70.6	inactive
Sugp2 (SURP and G patch domain containing 2)	SID363563440	71.5	62	inactive
Gatm	SID363570382	57.9	88.1	inactive
Gatm	SID363579182	81.1	124	inactive
Gatm	SID363583054	58.2	99.8	inactive
Or51ag1 (olfactory receptor family 51 subfamily AG member 1)	SID363544770	64.8	60.3	inactive
Or51ag1 (olfactory receptor family 51 subfamily AG member 1)	SID363551098	140	83.6	active
Or51ag1 (olfactory receptor family 51 subfamily AG member 1)	SID363557647	115	123	inactive
Acss1 (acyl-CoA synthetase short-chain family member 1)	SID363572705	62.8	85.8	inactive
Acss1 (acyl-CoA synthetase short-chain family member 1)	SID363577985	94.1	73.5	inactive
Acss1 (acyl-CoA synthetase short-chain family member 1)	SID363582209	72.7	136	inactive
Lypd8l (LY6/PLAUR domain containing 8 like)	SID363543361	97.4	102	inactive
Lypd8l (LY6/PLAUR domain containing 8 like)	SID363552854	98.2	63.2	inactive
Lypd8l (LY6/PLAUR domain containing 8 like)	SID363558702	72.6	92.2	inactive
C1qtnf6 (C1q and tumor necrosis factor related protein 6)	SID363553583	50.4	23.9	inactive
C1qtnf6 (C1q and tumor necrosis factor related protein 6)	SID363561540	44.1	68.2	inactive
C1qtnf6 (C1q and tumor necrosis factor related protein 6)	SID363565278	89.7	63.7	inactive
Opn3 (opsin 3)	SID363544824	101	75.3	inactive
Opn3 (opsin 3)	SID363551152	58.6	67.4	inactive
Opn3 (opsin 3)	SID363557701	50.6	70.2	inactive
Apba2 (amyloid beta precursor protein binding family A member 2)	SID363582572	73.7	85.3	inactive
Apba2 (amyloid beta precursor protein binding family A member 2)	SID363584332	96.5	68.7	inactive
Aox4 (aldehyde oxidase 4)	SID363546697	96.6	110	inactive
Aox4 (aldehyde oxidase 4)	SID363548453	111	115	inactive
Aox4 (aldehyde oxidase 4)	SID363560631	116	88.1	inactive
Slc9a7	SID363574905	75.6	74.3	inactive
Slc9a7	SID363575961	112	117	inactive
Slc9a7	SID363580537	54	61	inactive
Ugt2b5 (UDP glucuronosyltransferase 2 family, polypeptide B5)	SID363545358	88.9	88.2	inactive
Ugt2b5 (UDP glucuronosyltransferase 2 family, polypeptide B5)	SID363548871	67.7	96.7	inactive
Ugt2b5 (UDP glucuronosyltransferase 2 family, polypeptide B5)	SID363562677	73.4	56.7	inactive
Tmem184c (transmembrane protein 184C)	SID363547783	70.3	85.2	inactive
Tmem184c (transmembrane protein 184C)	SID363558552	89.6	106	inactive
Tmem184c (transmembrane protein 184C)	SID363560310	69.5	90.6	inactive
Nek3 (NIMA (never in mitosis gene a)-related expressed kinase 3)	SID363571041	62.2	76.4	inactive
Apod (apolipoprotein D)	SID363570044	162	105	active
Apod (apolipoprotein D)	SID363576380	207	102	active
Apod (apolipoprotein D)	SID363579548	58.7	70.9	inactive
Hs3st6 (heparan sulfate (glucosamine) 3-O-sulfotransferase 6)	SID363545191	149	78.7	active
Hs3st6 (heparan sulfate (glucosamine) 3-O-sulfotransferase 6)	SID363548704	84.5	100	inactive
Hs3st6 (heparan sulfate (glucosamine) 3-O-sulfotransferase 6)	SID363562510	50.6	48.6	inactive
Or10ak9 (olfactory receptor family 10 subfamily AK member 9)	SID363544718	36.1	28	inactive
Or10ak9 (olfactory receptor family 10 subfamily AK member 9)	SID363551046	76.5	78.2	inactive
Or10ak9 (olfactory receptor family 10 subfamily AK member 9)	SID363557595	59.8	54	inactive
Atp11a (ATPase, class VI, type 11A)	SID363545750	53.5	40.7	inactive
Atp11a (ATPase, class VI, type 11A)	SID363549263	31.7	61.1	inactive
Atp11a (ATPase, class VI, type 11A)	SID363563069	43	63.4	inactive
Or5ak25 (olfactory receptor family 5 subfamily AK member 25)	SID363544839	61.6	32.5	inactive
Or5ak25 (olfactory receptor family 5 subfamily AK member 25)	SID363551167	87.8	94.7	inactive
Or5ak25 (olfactory receptor family 5 subfamily AK member 25)	SID363557716	58.6	74.5	inactive
Mrps16 (mitochondrial ribosomal protein S16)	SID363553912	61.9	67.9	inactive
Mrps16 (mitochondrial ribosomal protein S16)	SID363561869	102	75.2	inactive
Mrps16 (mitochondrial ribosomal protein S16)	SID363565607	50.2	65	inactive
Npc2 (NPC intracellular cholesterol transporter 2)	SID363562302	99.5	98.7	inactive
Npc2 (NPC intracellular cholesterol transporter 2)	SID363567440	138	74.8	active
Npc2 (NPC intracellular cholesterol transporter 2)	SID363584797	84.4	74.4	inactive
9530080O11Rik (RIKEN cDNA 9530080O11 gene)	SID363542736	118	86	inactive
9530080O11Rik (RIKEN cDNA 9530080O11 gene)	SID363546253	100	46.8	inactive
9530080O11Rik (RIKEN cDNA 9530080O11 gene)	SID363548009	85.9	68.8	inactive
Slc23a2	SID363574818	71.2	86.1	inactive
Slc23a2	SID363575874	64.1	84.9	inactive
Slc23a2	SID363580450	60.4	90.3	inactive
Sorcs3 (sortilin-related VPS10 domain containing receptor 3)	SID363569992	87.1	106	inactive
Sorcs3 (sortilin-related VPS10 domain containing receptor 3)	SID363577032	78.1	85.4	inactive
Sorcs3 (sortilin-related VPS10 domain containing receptor 3)	SID363578440	57.3	79.8	inactive
Cd6 (CD6 antigen)	SID363568606	96.8	68.1	inactive
Cd6 (CD6 antigen)	SID363575998	114	62.7	inactive
Cd6 (CD6 antigen)	SID363578814	88.5	68.9	inactive
Akap4 (A kinase anchor protein 4)	SID363573407	80.9	88.3	inactive
Akap4 (A kinase anchor protein 4)	SID363588646	138	70.5	active
Prc1 (protein regulator of cytokinesis 1)	SID363572255	54.1	84.7	inactive
Prc1 (protein regulator of cytokinesis 1)	SID363574015	73.9	83.6	inactive
Mocs1 (molybdenum cofactor synthesis 1)	SID363562393	63.3	87.7	inactive
Mocs1 (molybdenum cofactor synthesis 1)	SID363567531	198	63.1	active
Mocs1 (molybdenum cofactor synthesis 1)	SID363584888	71.7	58.8	inactive

13 entries already listed, ordered by “GFP, % of control”, ascending.
Gene	PubChem SID	GFP, % of control	viability (ATP), % of control	Outcome
Mrps16 (mitochondrial ribosomal protein S16)	SID363565607	50.2	65	inactive
Or5ak25 (olfactory receptor family 5 subfamily AK member 25)	SID363557716	58.6	74.5	inactive
Or5ak25 (olfactory receptor family 5 subfamily AK member 25)	SID363544839	61.6	32.5	inactive
Mrps16 (mitochondrial ribosomal protein S16)	SID363553912	61.9	67.9	inactive
Slc23a2	SID363574818	71.2	86.1	inactive
Npc2 (NPC intracellular cholesterol transporter 2)	SID363584797	84.4	74.4	inactive
9530080O11Rik (RIKEN cDNA 9530080O11 gene)	SID363548009	85.9	68.8	inactive
Or5ak25 (olfactory receptor family 5 subfamily AK member 25)	SID363551167	87.8	94.7	inactive
Npc2 (NPC intracellular cholesterol transporter 2)	SID363562302	99.5	98.7	inactive
9530080O11Rik (RIKEN cDNA 9530080O11 gene)	SID363546253	100	46.8	inactive
Mrps16 (mitochondrial ribosomal protein S16)	SID363561869	102	75.2	inactive
9530080O11Rik (RIKEN cDNA 9530080O11 gene)	SID363542736	118	86	inactive
Npc2 (NPC intracellular cholesterol transporter 2)	SID363567440	138	74.8	active
